Reference: article PMC4223072
No constants are given. Whether binding was seen depends on the method and setting. Binding seen in cells or lysates may run through a third protein. Some binding calls cover weakened binding; strength is not graded here.

Amino acid sequences for entries named in this document (tags omitted). A change or cut given only in a name is not applied to a line headed by its entry. Residues count along the entry.
UniProt O60603: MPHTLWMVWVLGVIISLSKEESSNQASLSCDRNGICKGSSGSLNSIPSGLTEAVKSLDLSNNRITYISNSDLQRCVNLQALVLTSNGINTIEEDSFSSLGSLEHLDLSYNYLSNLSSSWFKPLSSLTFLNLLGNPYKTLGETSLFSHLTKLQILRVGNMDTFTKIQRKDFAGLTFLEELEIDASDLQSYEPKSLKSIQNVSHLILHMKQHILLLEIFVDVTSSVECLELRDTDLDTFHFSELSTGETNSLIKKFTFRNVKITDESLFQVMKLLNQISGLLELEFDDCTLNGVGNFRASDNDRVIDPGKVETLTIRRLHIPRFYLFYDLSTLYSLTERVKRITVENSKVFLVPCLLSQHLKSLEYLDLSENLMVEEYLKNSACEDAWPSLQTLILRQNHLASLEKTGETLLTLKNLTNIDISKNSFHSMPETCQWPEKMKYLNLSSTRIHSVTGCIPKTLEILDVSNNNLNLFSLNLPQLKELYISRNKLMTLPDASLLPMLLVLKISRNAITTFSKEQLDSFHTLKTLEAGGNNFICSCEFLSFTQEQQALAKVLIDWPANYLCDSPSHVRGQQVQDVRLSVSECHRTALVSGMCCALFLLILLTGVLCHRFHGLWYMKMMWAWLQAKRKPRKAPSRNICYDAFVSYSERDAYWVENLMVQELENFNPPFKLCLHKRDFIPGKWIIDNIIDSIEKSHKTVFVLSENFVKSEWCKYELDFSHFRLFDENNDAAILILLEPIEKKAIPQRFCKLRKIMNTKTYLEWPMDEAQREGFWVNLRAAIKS
UniProt P06756: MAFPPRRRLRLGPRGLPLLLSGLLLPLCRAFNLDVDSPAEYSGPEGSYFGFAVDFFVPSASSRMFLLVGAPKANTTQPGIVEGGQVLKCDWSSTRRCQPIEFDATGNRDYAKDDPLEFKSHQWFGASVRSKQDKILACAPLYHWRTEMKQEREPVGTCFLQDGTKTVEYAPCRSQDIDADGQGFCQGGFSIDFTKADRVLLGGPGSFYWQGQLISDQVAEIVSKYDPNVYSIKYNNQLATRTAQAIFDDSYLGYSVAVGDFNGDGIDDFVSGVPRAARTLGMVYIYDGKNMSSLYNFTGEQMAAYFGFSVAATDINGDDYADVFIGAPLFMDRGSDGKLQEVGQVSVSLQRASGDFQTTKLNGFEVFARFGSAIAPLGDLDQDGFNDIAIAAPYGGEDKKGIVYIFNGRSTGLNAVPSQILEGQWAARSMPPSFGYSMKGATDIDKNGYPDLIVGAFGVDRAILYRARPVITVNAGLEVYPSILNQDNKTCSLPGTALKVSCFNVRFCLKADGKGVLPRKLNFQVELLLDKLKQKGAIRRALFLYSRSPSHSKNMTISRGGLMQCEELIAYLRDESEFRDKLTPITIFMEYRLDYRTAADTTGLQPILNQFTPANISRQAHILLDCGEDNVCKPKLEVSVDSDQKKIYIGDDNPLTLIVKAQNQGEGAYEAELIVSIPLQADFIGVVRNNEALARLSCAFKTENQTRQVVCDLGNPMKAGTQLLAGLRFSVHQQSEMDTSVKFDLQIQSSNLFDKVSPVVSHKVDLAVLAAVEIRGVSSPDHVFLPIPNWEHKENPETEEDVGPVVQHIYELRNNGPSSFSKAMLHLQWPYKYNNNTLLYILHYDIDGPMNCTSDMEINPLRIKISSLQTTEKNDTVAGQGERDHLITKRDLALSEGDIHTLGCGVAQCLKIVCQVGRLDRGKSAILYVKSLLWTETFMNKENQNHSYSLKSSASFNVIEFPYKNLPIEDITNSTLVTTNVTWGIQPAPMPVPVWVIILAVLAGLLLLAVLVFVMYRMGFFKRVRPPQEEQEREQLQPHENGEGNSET
UniProt Q69091, residues 26-394: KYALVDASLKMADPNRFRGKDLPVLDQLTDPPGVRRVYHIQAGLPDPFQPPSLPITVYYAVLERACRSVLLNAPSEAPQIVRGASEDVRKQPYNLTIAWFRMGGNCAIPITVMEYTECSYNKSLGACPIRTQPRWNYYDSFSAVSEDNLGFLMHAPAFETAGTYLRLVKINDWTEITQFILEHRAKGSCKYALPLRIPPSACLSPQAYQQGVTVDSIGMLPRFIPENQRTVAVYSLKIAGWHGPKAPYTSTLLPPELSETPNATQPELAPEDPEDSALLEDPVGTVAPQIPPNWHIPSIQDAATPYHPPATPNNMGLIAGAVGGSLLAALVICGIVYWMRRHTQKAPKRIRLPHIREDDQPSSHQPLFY
UniProt Q99836: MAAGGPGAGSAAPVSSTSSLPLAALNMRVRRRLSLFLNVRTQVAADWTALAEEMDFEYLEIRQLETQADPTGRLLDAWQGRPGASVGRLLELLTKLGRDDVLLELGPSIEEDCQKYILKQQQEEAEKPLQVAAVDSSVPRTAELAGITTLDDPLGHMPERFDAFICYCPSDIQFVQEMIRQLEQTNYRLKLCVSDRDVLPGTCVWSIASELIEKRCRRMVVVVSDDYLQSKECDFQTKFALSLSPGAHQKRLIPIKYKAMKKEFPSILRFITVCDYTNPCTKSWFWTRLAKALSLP

How the values were obtained:
[1] = target: TLR2-Flag (UniProt O60603); assay: co-IP; 293T cells simultaneously transfected with TLR2-Flag, αv+β3-integrin, gH, gL (controls devoid of TLR2); TLR2-Flag immunoprecipitated with anti-Flag MAb; WB with PAb to gH/gL and PAb to β3-integrin
[2] = target: TLR2-Flag (UniProt O60603); assay: co-IP; TLR2-Flag immunoprecipitated with anti-Flag M2 MAb, complexes harvested with Protein G-Sepharose, from lysates (PBS, 1% DOC, 1% Igepal) of transfected 293T or sh-β3 293T cells; WB with PAb 1932 to β3-integrin or PAb to gH/gL
[3] = target: strep-tagged αv-integrin with β3-integrin_(Y747-Y759) mutant (αv_(strep)β3-integrin_(Y747-Y759)) (UniProt P06756); assay: pull-down; αvst harvested with Strep-Tactin Sepharose (the paper's 'IP: αvst') from sh-β3 293T cells transfected with αvst, β3wt or β3_(Y747-759F), MYD88-HA, plus or minus TLR2-Flag, exposed to R7910 for 10, 20, 30 min; lysis in EA1 buffer (50 mM HEPES, 250 mM NaCl, 0.5% Igepal, pH 8); WB with MAb to HA
[4] = target: strep-tagged αv-integrin with wt β3-integrin (αv_(strep)wt-β3-integrin) (UniProt P06756); assay: as above

| Substance | binding [1] | binding [2] | binding [3] | binding [4] |
| --- | --- | --- | --- | --- |
| HSV-1 glycoprotein gD (from UniProt Q69091 26-394) | no binding |  |  |  |
| HSV-1 glycoprotein gH/gL heterodimer (from UniProt P06477 19-838; P10185 20-224) (complex) | binds | binds |  |  |
| hemagglutin (HA)-tagged MYD88 (MYD88-HA) (from UniProt Q99836 1-296) |  |  | no binding | binds |
| αvβ3-integrin (αv + β3wt) (from UniProt P06756 31-1048; P05106 27-788) (complex) | binds | binds |  |  |
| αvβ3-integrin with β3_(Y747-759F) (αv + β3_(Y747-759F)) (from UniProt P06756 31-1048; P05106 27-788) (complex) |  | binds |  |  |
